Experimental data published in PubChem BioAssay AID2685 (National Center for Advancing Translational Sciences (NCATS), 2010).
About 2,100 (0.66%) of roughly 320,000 compounds were called active. The inconclusive results got no clear call from the source; some entries with a clear call stand among them for comparison. Calls come from the whole dose curve; as a rule, active = well fitted inhibition curve with a large enough effect in the signal ratio, with a control signal flat (not every such curve was filed as active); inconclusive = small, poorly fitted or top-dose-only effect, or effect the other way, or a change in a side signal; inactive = flat fitted curve, though single readings scatter; the % refers to the signal ratio. Potencies beside an inconclusive call are fits to weak or partial responses and may not hold up.

assay: qHTS Assay for Lipid Storage Modulators in Drosophila S3 Cells; conditions: BODIPY lipid droplet fluorescence, 18-24 h, cells fed with added oleic acid; lipid storage change, negative = inhibition: at 46.1 µM (top of the series) unless noted
Summary of the method: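 Drosophila S3 cells got compounds at several concentrations plus oleic acid (400 uM solution). Laser-scanning cytometry with 488 nm excitation read lipid droplets at 500-530 nm and cells at 575-640 nm. Percent activity was relative to 20 uM Triacsin C.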
% is set by controls: 0 for no effect and ±100 for the full control effect; potency is the fitted concentration of half-maximal effect.

| Compound | Potency | lipid storage change, negative = inhibition |
| --- | --- | --- |
| O=c1c(-c2ccccc2Cl)coc2c(CN3CCCCC3)c(O)ccc12 | inconclusive: 0.731 µM [falling, single point] |  |
| CC(C)c1ccc(NC(=O)CCCC(=O)NCCc2ccccc2)cc1 |  | inconclusive: -51% |
| O=C(COC(=O)c1cc([N+](=O)[O-])ccc1N1CCOCC1)c1ccc(Br)cc1 |  | inconclusive: 42.6% |
| Cc1cc(Nc2ccc(F)cc2)n2nc(C)nc2n1 | inconclusive: 5.8 µM [activator, single point] |  |
| Nc1ccccc1C(=O)N/N=C1\C2CN3CCN(C2)CC1(c1ccccc1)C3 |  | inconclusive: -27.6% |
| O=C(Nc1ccc([N+](=O)[O-])cn1)C1CC2CCC1C2 (stereo unspecified) |  | inconclusive: 6.18% |
| CCC(CC)NC(=O)CCCSc1nc2ccccc2[nH]1 |  | inconclusive: 31.5% |
| FCCCOc1ccc(/C=N/OCc2c(Cl)cccc2Cl)cc1 |  | inconclusive: 10% |
| COc1ccc(CCNC(=O)c2cc(-c3ccncc3)nc3ccc(S(=O)(=O)N4CCOCC4)cc23)cc1OC | inconclusive: 4.11 µM [activator, full curve, poor fit] |  |
| CN1C(=O)C2CN(CCc3ccccc3)CNC2N(C)C1=O (stereo unspecified) | inconclusive: 3.66 µM [falling, full curve] |  |
| CC(C)(C)OC(=O)Cn1c(=O)cnc2ccccc21 |  | inactive: -0.847% |
| COc1ccccc1NC(=O)C(=O)NCCC1CCCCN1S(=O)(=O)c1ccccc1 (stereo unspecified) |  | inconclusive: -31.6% |
| CC1CC(C)CN(C(=O)c2ccc3c(c2NCCO)C(=O)c2ccccc2C3=O)C1 (stereo unspecified) | inconclusive: 3.66 µM [cytotoxic, full curve] |  |
| CCc1ccc(S(=O)(=O)/N=C2\C=C(Nc3ccc(O)cc3)C(=O)c3ccccc32)cc1 |  | inactive: -100% |
| Cc1ccc(C(=O)N/N=C\c2ccc([N+](=O)[O-])o2)cn1 | inconclusive: 14.6 µM [falling, single point] |  |
| Cc1ccc(S(=O)(=O)N2CCN(Cc3ccccc3C(F)(F)F)CC2)cc1 |  | inconclusive: 1.66% |
| CCOc1ccc(N2C(=O)/C(=C\c3ccccc3OC)S(=O)(=O)C2c2cccc([N+](=O)[O-])c2)cc1 (stereo unspecified) |  | inconclusive: 15.2% |
| Cc1cc(C(=O)Nc2ccccc2Cl)c2ccccc2n1 | inconclusive: 5.8 µM [activator, full curve] |  |
| COc1cc(/C=N/NC(=O)c2cc3c(ccc4ccccc43)o2)cc(OC)c1O | inconclusive: 25.9 µM [falling, partial curve, poor fit] |  |
| COc1cccc(COC(=O)c2nn(-c3ccccc3)nc2N)c1 |  | inconclusive: -28.3% [at 9.22 µM] |
| CCCNCc1nnc(-c2ccccc2Cl)o1 |  | inconclusive: -1.41% |
| COCc1c(C(=O)N/N=C/C2CC=CCC2)nnn1-c1nonc1N (stereo unspecified) |  | inconclusive: 17.5% |
| COc1ccc(CNS(=O)(=O)c2ccc(-n3cnnn3)c(C)c2)cc1 | active: 18.4 µM |  |
| CC1CCCC/C1=N\NC(=S)NCCc1ccccc1 (stereo unspecified) |  | inconclusive: -8.98% |
| CCOC(=O)c1cc2sccc2n1Cc1ccccc1 | inconclusive: 16.4 µM [activator, partial curve] |  |
| O=C(NNS(=O)(=O)c1ccc(Cl)cc1)c1cc(-c2ccccc2)n[nH]1 |  | inconclusive: 15.3% |

Single values from the list:
CN1C(=O)C2CN(CCc3ccccc3)CNC2N(C)C1=O (stereo unspecified) – Potency: inconclusive: 3.66 µM [falling, full curve]
COc1cccc(COC(=O)c2nn(-c3ccccc3)nc2N)c1 – lipid storage change, negative = inhibition: inconclusive: -28.3% [at 9.22 µM]
COc1ccc(CNS(=O)(=O)c2ccc(-n3cnnn3)c(C)c2)cc1 – Potency: active: 18.4 µM
Nc1ccccc1C(=O)N/N=C1\C2CN3CCN(C2)CC1(c1ccccc1)C3 – lipid storage change, negative = inhibition: inconclusive: -27.6%
O=c1c(-c2ccccc2Cl)coc2c(CN3CCCCC3)c(O)ccc12 – Potency: inconclusive: 0.731 µM [falling, single point]

Continued:

| Compound | Potency | lipid storage change, negative = inhibition |
| --- | --- | --- |
| O=C(NC(=S)NCCc1ccccc1)c1ccccc1F | inconclusive: 11.6 µM [falling, partial curve] |  |
| Cc1cccc(-c2cc(C(=O)Nc3c(C)n(C)n(-c4ccccc4)c3=O)c3ccccc3n2)c1 | inconclusive: 11.6 µM [activator, partial curve] |  |
| CCn1c(COc2ccc(=O)n(-c3ccccc3)n2)nnc1SCc1ccccc1 | inconclusive: 6.51 µM [activator, partial curve] |  |
| COc1ccc(CNC(=O)C2C3C=CC4(CN(Cc5cccnc5)C(=O)C24)O3)cc1 (stereo unspecified) |  | inconclusive: 3.07% |
| O=C(Nc1ccc(F)c(Cl)c1)C1CCN(S(=O)(=O)c2cccnc2)CC1 | inconclusive: 23.1 µM [activator, single point] |  |
| CCc1nnc(NC(=O)CSc2nnc3nc(C)cc(C)n23)s1 | inconclusive: 0.13 µM [activator, partial curve, poor fit] |  |
| Cc1ccc(S(N)(=O)=O)c(C)c1-n1cnnn1 |  | inactive: 3.06% |
| CCCCCC(=O)Nc1ccc(C(=O)CN2C(=O)NC3(CCCCCC3)C2=O)cc1 |  | inconclusive |
| Fc1ccccc1/C=N/Nc1ncnc2ccccc12 |  | inconclusive: 10.9% |
| CCN(CC)c1ccc(NC(=O)CCS(=O)(=O)c2cccc3nsnc23)c(C)c1 |  | inconclusive: -36.4% |
| COc1ccccc1NC(=O)c1ccc(NC(=O)c2nc3nccc(C)n3n2)cc1 |  | inconclusive: -14.8% |
| COc1ccc(-c2c(C)nn3c(N4CCN(Cc5ccccc5)CC4)cc(C)nc23)cc1OC |  | inconclusive: 8.47% |
| CCOC(=O)N1CCC(Nc2c(NCCN3CCN(c4ccccc4F)CC3)c(=O)c2=O)CC1 | inconclusive: 16.4 µM [falling, single point] |  |
| Cn1c(-c2ccc(F)cc2)cnc1SCC(=O)NCc1ccco1 |  | inconclusive: 32.7% |
| O=C1C2C3C=CC(CC3)C2C(=O)N1c1ccc(Cl)cc1 (stereo unspecified) | inconclusive: 6.51 µM [activator, single point] |  |
| COc1ccc(OCCNC2CCCC2)cc1 |  | inconclusive: 7.67% |
| CCN(CC)c1ccc(C2CC(=O)Nc3cc(OC)c(OC)cc32)cc1 (stereo unspecified) | inconclusive: 25.9 µM [activator, single point] |  |
| COc1ccc(CC(=O)NCc2ccccc2)cc1 |  | inconclusive: 18% |
| COc1cccc(C=Nc2cccnc2)c1O |  | inconclusive: -12% |
| O=C(c1ccc2nc(N3CCOCC3)sc2c1)N1CCN(c2ccc(Cl)cc2)CC1 | inconclusive: 5.17 µM [activator, partial curve] |  |
| O=C(CCN1CCCCC1=O)NC1CCCc2c1cnn2-c1ccccc1F (stereo unspecified) |  | inconclusive: 16.8% |
| Cc1ccc(C(=O)COC(=O)CN2C(=O)C3C4CC(C(Br)C4Br)C3C2=O)cc1 (stereo unspecified) | inconclusive: 29.1 µM [activator, single point] |  |
| COc1ccc(N(CCC#N)C(=O)/C(C#N)=C/c2cccs2)cc1 |  | inconclusive: -10.3% |
| CCC(=O)Nc1c2c(nn1-c1ccc(F)cc1)CS(=O)C2 (stereo unspecified) | inconclusive: 0.103 µM [falling, full curve, poor fit] |  |
| CC1CCc2nc3ccc(S(=O)(=O)N4CCC(C(=O)NCc5ccccc5Cl)CC4)cc3c(C(=O)O)c2C1 (stereo unspecified) |  | inconclusive: -83.5% |
| O=C(O)CC(Cc1ccc(Cl)cc1)C(=O)Nc1cc(Cl)ccc1Cl (stereo unspecified) |  | inconclusive: 8.29% |

| Compound | Potency | lipid storage change, negative = inhibition |
| --- | --- | --- |
| COc1cccc(-c2nc(CS(=O)(=O)CC(=O)Nc3cc(OC)ccc3OC)c(C)o2)c1 | inconclusive: 16.4 µM [falling, single point] |  |
| O=C(O)CCCC(=O)Nc1c(F)c(F)c(F)c(F)c1F |  | inconclusive: 56.9% |
| COc1ccccc1N1C(=O)C2CC=CC(C)C2C1=O (stereo unspecified) |  | inconclusive: -50.8% |
| COc1ccc(NC(=O)c2cc(S(=O)(=O)N(C)C)ccc2N2CCCC2)cc1Cl |  | inconclusive: 74.1% |
| Cc1ccc(S(=O)(=O)N(CC(=O)N2CCC(C)CC2)c2ccccc2)cc1 |  | inconclusive: -56.9% |
| COc1ccc(C)cc1N=Nc1ccc(O)c2ncccc12 | inconclusive: 29.1 µM [falling, single point] |  |
| NC(=O)c1nsc(C(=O)N(CC(=O)NCc2ccco2)c2ccccc2F)c1N | inconclusive: 1.3 µM [falling, partial curve] |  |
| O=C(COC(=O)c1cccc(C(=O)OCC(=O)NC2CCCCC2)n1)NC1CCCCC1 | active: 20.6 µM |  |
| CSCCC(NS(=O)(=O)c1ccc(C)cc1)C(=O)N1CC=C(c2ccccc2)CC1 (stereo unspecified) | inconclusive: 0.651 µM [activator, partial curve] |  |
| CN(Cc1nc2ccc(F)cc2[nH]1)C(=O)C1CCC(=O)N(C2CC2)C1 (stereo unspecified) |  | inconclusive: 3.39% |
| Cc1ccc(/C=C/C(=O)N2CCc3ccccc32)o1 |  | inconclusive: -50.2% |
| O=S(=O)(c1ccc(N2CCN(Cc3ccc4c(c3)OCO4)CC2)nc1)N1CCOCC1 |  | inconclusive: 40.1% |
| O=C1CCc2cc(S(=O)(=O)N3CCC(C(=O)NC4CCCc5ccccc54)CC3)ccc2N1 (stereo unspecified) |  | inconclusive: 31.2% |
| CCn1c(O)c(/C=C2\C=Nc3ccccc32)sc1=O |  | inconclusive: 43.7% |
| CC(=O)Nc1ccc(NC(=O)Nc2cccc(Cl)c2)cc1 |  | inconclusive: 36.8% |
| FC(F)(F)c1cccc(-n2cccc2/C=N/n2cnnc2)c1 |  | inconclusive: 2.54% |
| CCC(=NCCc1c(C)[nH]c2ccccc12)C1=C(O)CC(c2ccccc2)CC1=O (stereo unspecified) | inconclusive: 29.1 µM [falling, single point] |  |
| c1ccc2[nH]c(CN3CCN(c4ncnc5c4oc4ccccc45)CC3)nc2c1 | inconclusive: 0.116 µM [activator, full curve, poor fit] |  |
| CCOc1ccc(S(=O)(=O)N2CCCC(C(=O)NC3CCCC3)C2)cc1 (stereo unspecified) | inconclusive: 29.1 µM [activator, single point] |  |
| Cc1ccc2c(Cl)cc(Cl)c(OCC(=O)Nc3cc(S(=O)(=O)N(C)C)ccc3C)c2n1 |  | inconclusive: -25.7% |
| CSC1=NC2(CCCCC2)C2=C(CCCC2)N1 | active: 5.8 µM |  |
| Cc1ccc(NC(=O)COC(=O)c2ccc(F)cc2Cl)c(Br)c1 |  | inconclusive: -9.11% |
| CC(OC(=O)Cn1cnc2ccccc2c1=O)C(=O)NCc1ccccc1 (stereo unspecified) |  | inconclusive |
| COCc1cc(C)nc(SCC(=O)Nc2ccccc2C)c1C#N | inconclusive: 0.0052 µM [rising, full curve] |  |
